We go through one substance from publication PMC2585478.

Results are given in words; binding and its absence hold for the method and conditions named. In cells and extracts the contact can be indirect. Some entries that bind do so weakly or less than the wild type.

In this experiment the target is GST-SH2-Src (UniProt P12931). Put plainly: pull-down; immobilised GST fusion proteins incubated with normalized whole cell lysates of PAE cells (unstimulated or stimulated with CSF-1 or VEGF for 10 minutes; also cells co-expressing c-Cbl, Cbl-N or c-Cbl siRNA) by rocking for 3 h at 4°C; beads washed four times; Western blot; only the target purified. A general note: In western blotting, separated proteins are transferred to a membrane and probed.

Take “full length VEGFR-2 (non-chimeric) (from UniProt P35918 20-1345) (receptor)”: the binding entry is reported as “binds”.
